# Data published in patent US20060110456A1, “Method for biocidal and/or biostatic treatment and compositions therefor” (NATIONAL UNIVERSITY OF SINGAPORE, priority 2004, published 2006).
# Some of these results come from one statement about several compounds together.
# Test system: Bugula neritina larvae
# Experiment: Bioassay against bryozoan larvae
# Format: in vivo
# Conditions: settlement after 24 hours
# Protocol: Bugula neritina (Phylum Bryozoa, Class Gymnolaemata, Order Cheilostomatida) is a cosmopolitan species of bryozoan, commonly found in most marine fouling communities. The larvae are brooded in ovicells found on the stem of the colonies. When released, the larva will settle quickly on most surfaces, within a few minutes. At 24° C., the settled larvae forms the one-cell ancestrula, and after 48 hours, the lophophore has developed and extended for feeding.
# Adult colonies of Bugula neritina were collected from fouling communities growing on the submerged pontoons on a floating fish farm located off Changi, Singapore. Adult animals were maintained in the open-circulation aquarium at St John's island marine laboratory, Singapore. The adults were kept in total darkness for 24 hours. On exposure to light, larvae were released after half an hour. […] Because the larvae will settle quickly, larvae were pipetted directly into test wells in 1 ml of seawater using a graduated glass pipette.
# 4 replicates were done for each treatment. After 24 hours, larvae were scored as settled, swimming or dead/deformed. The assay plates were usually kept for another 24 hours and checked again, to ascertain that the settled larvae had developed into viable colonies with lophophores. Two trials were repeated for each compound. […]
smiles,measurement,value
"Cc1cc2c(s1)Nc1ccccc1N=C2N1CCN(C)CC1 [ZPX, olanzapine]",Estimated ED50,1 to 5 µg/mL
